Data as given in PubChem BioAssay AID1259308 (NCATS, 2017).

Aim: 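Genes whose loss raises luciferase production in HEK293 cells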 (primary screen)
Cell system: human HEK293 embryonic kidney cells stably expressing firefly luciferase (HEK-CMV-Luc2-Hygro)
Knock-down reagent: single siRNA against human genes, 0.8 pmol siRNA per well
Timing: 72 h
Measurement: 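Reporter luminescence and viable-cell signal on separate replicate plates, given as percent of non-targeting control and median/MAD z-scores, plus per-cell luciferase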
Reading the numbers: total luciferase, z-score and total luciferase, % of control: higher = more reporter protein produced; luciferase per cell, z-score: higher = more reporter output per viable cell; viable cells, % of control: higher = more viable cells
Rule for the call: 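An siRNA counts as active if its total luciferase robust z-score exceeds 3; genes with two or more such siRNAs out of three were retested with fresh siRNAs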
Meaning of the calls: active = raised luciferase; inactive = no rise
In all, the deposit lists about 59,000 reagents; this is an unselected part. About 1,510 of them (2.6%) count as active. 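Calls use total luciferase alone and ignore viability, so some active siRNAs may act by altering cell number.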 Entries without a mark were called inactive. The numbers tell different reagents against one gene apart. Reagent sequences are not shown.

no.	gene symbol	siRNA no.	total luciferase, z-score	total luciferase, % of control	luciferase per cell, z-score	viable cells, % of control
1	PRELID1 (PRELI domain containing 1)	1	-0.626	69.4	0.72	64.2
2	PRELID1 (PRELI domain containing 1)	2	-0.642	69.1	-0.511	88.4
3	PRELID1 (PRELI domain containing 1)	3	-0.054	80.8	0.42	80.9
4	GPR32 (G protein-coupled receptor 32)	1	0.328	88.4	-0.0968	101
5	GPR32 (G protein-coupled receptor 32)	2	-0.489	72.2	-0.473	91.3
6	GPR32 (G protein-coupled receptor 32)	3	1.17	105	0.492	103
7	STAT4 (signal transducer and activator of transcription 4)	1	0.725	96.3	0.593	92.1
8	STAT4 (signal transducer and activator of transcription 4)	2	-0.647	69	-1.61	118
9	STAT4 (signal transducer and activator of transcription 4)	3	-0.275	76.4	-0.752	104
10	DCAF12L1 (DDB1 and CUL4 associated factor 12 like 1)	1	0.495	91.7	0.224	96.6
11	DCAF12L1 (DDB1 and CUL4 associated factor 12 like 1)	2	-1.07	60.7	-0.494	77.2
12	DCAF12L1 (DDB1 and CUL4 associated factor 12 like 1)	3	0.258	87	-0.4	108
13	MRPL43 (mitochondrial ribosomal protein L43)	1	-0.284	76.2	-0.827	106
14	MRPL43 (mitochondrial ribosomal protein L43)	2	0.29	87.7	0.0394	96.9
15	MRPL43 (mitochondrial ribosomal protein L43)	3	-0.312	75.7	0.202	80.2
16	GK (glycerol kinase)	1	-0.157	78.8	-0.211	93
17	GK (glycerol kinase)	2	0.149	84.8	0.0919	92.5
18	GK (glycerol kinase)	3	1.12	104	0.895	92
19	SLC25A13	1	0.0278	82.4	0.583	79
20	SLC25A13	2	0.535	92.5	-0.0958	106
21	SLC25A13	3	-0.811	65.8	-0.634	86.8
22	GRIN2D (glutamate ionotropic receptor NMDA type subunit 2D)	1	-0.681	68.3	-1.38	110
23	GRIN2D (glutamate ionotropic receptor NMDA type subunit 2D)	2	1.09	104	0.591	99
24	GRIN2D (glutamate ionotropic receptor NMDA type subunit 2D)	3	0.102	83.9	-0.681	112
25	UBTF (upstream binding transcription factor)	1	-1.3	56	0.0178	62.3
26	UBTF (upstream binding transcription factor)	2	-2.59	30.4	-2.71	69.2
27	UBTF (upstream binding transcription factor)	3	-0.816	65.7	-0.771	89.9
28	HCN4	1	-0.137	79.2	0.572	76.1
29	HCN4	2	-0.351	74.9	-0.615	98.4
30	HCN4	3	-0.694	68.1	-0.233	80.9
31	KCTD15 (potassium channel tetramerization domain containing 15)	1	-1.34	55.2	1.25	44.3
32	KCTD15 (potassium channel tetramerization domain containing 15)	2	3.07 (active)	143	2.78	76.8
33	KCTD15 (potassium channel tetramerization domain containing 15)	3	3.62 (active)	154	2.55	88
34	DCX (doublecortin)	1	0.842	98.6	1.08	83
35	DCX (doublecortin)	2	-0.782	66.3	0.323	68.1
36	DCX (doublecortin)	3	-1.03	61.4	-1.09	91.4
37	NOBOX (NOBOX oogenesis homeobox)	1	3.21 (active)	146	2.66	80.9
38	NOBOX (NOBOX oogenesis homeobox)	2	-1.84	45.2	-1.89	83.1
39	NOBOX (NOBOX oogenesis homeobox)	3	0.461	91.1	0.816	82.1

Sorted by “total luciferase, z-score” (ascending): some entries from above
gene symbol	siRNA no.	total luciferase, z-score	total luciferase, % of control	luciferase per cell, z-score	viable cells, % of control
KCTD15 (potassium channel tetramerization domain containing 15)	1	-1.34	55.2	1.25	44.3
HCN4	3	-0.694	68.1	-0.233	80.9
HCN4	2	-0.351	74.9	-0.615	98.4
HCN4	1	-0.137	79.2	0.572	76.1
